Assay [1] concerns the target 3xFLAG-NLS-DUX4-CTD (DUX4 aa154-424) (human) (UniProt Q9UBX2). Nature of the assay: co-IP; anti-FLAG [M2] on Protein G Dynabeads, nuclear extract in IP buffer pH 7.4 (25 mM Tris-HCl pH 7.5, 175 mM NaCl, 1 mM EDTA, 0.2% NP-40, 5% glycerol), 3 hr at 4°C; Western blot; MB135 cells induced with doxycycline, ± IFNγ. In general terms: A western blot detects proteins with antibodies after separation by electrophoresis.

Amino acid sequences for entries named in this document (tags omitted). A change or cut given only in a name is not applied to a line headed by its entry. Residues count along the entry.
3xFLAG-NLS-DUX4-CTD (DUX4 aa154-424) (Q9UBX2, residues 154-424): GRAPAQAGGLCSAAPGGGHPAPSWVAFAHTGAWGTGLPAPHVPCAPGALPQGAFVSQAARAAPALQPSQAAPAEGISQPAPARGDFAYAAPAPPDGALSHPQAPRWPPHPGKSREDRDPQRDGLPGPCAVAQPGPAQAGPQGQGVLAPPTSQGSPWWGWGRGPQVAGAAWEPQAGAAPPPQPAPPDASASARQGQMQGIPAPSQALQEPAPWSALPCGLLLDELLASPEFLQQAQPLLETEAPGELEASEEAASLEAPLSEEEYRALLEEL
3xFLAG-NLS-DUX4aa154-372 (Q9UBX2, residues 154-372): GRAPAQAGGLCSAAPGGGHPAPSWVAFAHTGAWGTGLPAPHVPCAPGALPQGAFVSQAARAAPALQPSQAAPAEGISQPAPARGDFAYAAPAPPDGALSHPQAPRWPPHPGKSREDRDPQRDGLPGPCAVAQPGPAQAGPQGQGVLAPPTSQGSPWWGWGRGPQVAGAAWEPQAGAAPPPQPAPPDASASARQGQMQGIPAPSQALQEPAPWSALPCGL
UniProt P42224: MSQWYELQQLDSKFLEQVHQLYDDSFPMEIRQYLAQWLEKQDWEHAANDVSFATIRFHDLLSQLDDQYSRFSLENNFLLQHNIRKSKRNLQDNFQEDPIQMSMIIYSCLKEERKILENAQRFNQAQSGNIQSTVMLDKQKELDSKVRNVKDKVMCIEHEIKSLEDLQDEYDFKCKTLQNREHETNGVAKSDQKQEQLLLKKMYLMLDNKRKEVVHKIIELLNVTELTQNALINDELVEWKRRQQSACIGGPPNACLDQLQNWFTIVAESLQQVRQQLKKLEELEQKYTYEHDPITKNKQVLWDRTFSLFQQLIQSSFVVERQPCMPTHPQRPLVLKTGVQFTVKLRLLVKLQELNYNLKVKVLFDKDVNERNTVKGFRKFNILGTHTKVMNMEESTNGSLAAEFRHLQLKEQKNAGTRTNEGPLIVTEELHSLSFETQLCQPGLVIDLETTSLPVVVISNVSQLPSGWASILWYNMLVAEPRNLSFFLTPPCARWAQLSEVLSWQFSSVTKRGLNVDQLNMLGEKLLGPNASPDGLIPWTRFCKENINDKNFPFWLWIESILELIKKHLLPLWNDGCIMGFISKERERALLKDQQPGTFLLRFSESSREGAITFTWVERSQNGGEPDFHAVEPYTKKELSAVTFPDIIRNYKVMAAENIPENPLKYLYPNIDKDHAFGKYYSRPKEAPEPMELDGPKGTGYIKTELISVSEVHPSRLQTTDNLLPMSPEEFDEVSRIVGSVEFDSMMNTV
UniProt O00571: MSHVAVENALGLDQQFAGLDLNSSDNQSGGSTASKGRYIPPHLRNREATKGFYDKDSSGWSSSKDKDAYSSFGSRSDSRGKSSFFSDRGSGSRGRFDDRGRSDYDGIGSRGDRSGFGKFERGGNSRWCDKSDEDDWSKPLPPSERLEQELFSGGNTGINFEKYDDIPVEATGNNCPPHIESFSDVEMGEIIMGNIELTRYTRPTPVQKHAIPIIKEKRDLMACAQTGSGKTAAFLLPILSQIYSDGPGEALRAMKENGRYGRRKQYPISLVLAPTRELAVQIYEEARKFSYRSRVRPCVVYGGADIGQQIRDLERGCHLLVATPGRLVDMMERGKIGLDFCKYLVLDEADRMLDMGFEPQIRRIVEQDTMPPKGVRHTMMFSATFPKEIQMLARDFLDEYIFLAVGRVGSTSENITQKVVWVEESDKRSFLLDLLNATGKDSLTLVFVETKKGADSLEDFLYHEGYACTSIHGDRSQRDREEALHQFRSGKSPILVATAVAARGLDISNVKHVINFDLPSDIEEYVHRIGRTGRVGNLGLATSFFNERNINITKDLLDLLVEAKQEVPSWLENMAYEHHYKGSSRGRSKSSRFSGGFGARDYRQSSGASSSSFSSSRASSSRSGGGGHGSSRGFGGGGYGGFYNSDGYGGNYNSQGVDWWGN

The target is the same in assay [2]. Description: proximity ligation; fixed MB135 cells treated with doxycycline and IFNγ; mouse anti-FLAG [M2] with rabbit anti-STAT1 or rabbit anti-pSTAT1 Y701; Duolink; nuclear mean fluorescent intensity.
The target in assay [3] is 3xFLAG-NLS-DUX4aa154-372 (human) (UniProt Q9UBX2). Nature of the assay: co-IP; anti-FLAG [M2] on Protein G Dynabeads, nuclear extract in IP buffer pH 7.4 (25 mM Tris-HCl pH 7.5, 175 mM NaCl, 1 mM EDTA, 0.2% NP-40, 5% glycerol), 3 hr at 4°C; Western blot; MB135 cells induced with doxycycline, ± IFNγ.
Assay [4] concerns the target 3XFLAG-NLS-DUX4CTD, constitutive, in primary human foreskin fibroblasts (human) (UniProt Q9UBX2). Description: proximity ligation; fixed primary human foreskin fibroblasts with constitutive FLAG-tagged transgene, treated with IFNγ; mouse anti-FLAG [M2] with rabbit anti-STAT1; Duolink; mean fluorescent intensity of transgene-positive nuclei.
For assay [5], the target named is 3xFLAG-NLS-DUX4-CTD (DUX4 aa154-424) (human) (UniProt Q9UBX2). Description: co-IP; anti-FLAG [M2] on Protein G Dynabeads, nuclear extract in IP buffer pH 7.4 (25 mM Tris-HCl pH 7.5, 175 mM NaCl, 1 mM EDTA, 0.2% NP-40, 5% glycerol), 3 hr at 4°C; Western blot; MB135 cells induced with doxycycline, ± IFNγ. The source holds these as a separate data set.

Data on eleven molecules can be found in article PMC10195082.

No constants are given. Whether binding was seen depends on the method and setting. In cells and extracts the contact can be indirect. Some results given as binding are weak or reduced against the parent protein; the word gives no strength.

For the molecule “3xMYC-STAT1 (wild type) (from UniProt P42224 1-750)”, the binding entry in assay [1] is listed as “binds”.
Same read-out and setting: then “3xMYC-STAT1-S727A (from UniProt P42224 1-750)”, with “binds”.
Take “DDX3X (endogenous) (from UniProt O00571 1-662)”: the binding result in assay [1] is given as “binds”.
For “PABPC1 (endogenous) (from UniProt P11940 1-636)”, the binding result in assay [1] is recorded as “binds”.
Still for that read-out and setting: the same measure for “PRKDC (endogenous) (from UniProt P78527 1-4128)”: “binds”.
For the molecule “STAT1 (endogenous, total, MB135 cells) (from UniProt P42224 1-750)”, the binding result in assay [2], in assay [1] and in assay [3] was “binds” throughout.
In the case of “STAT1 (endogenous, total, primary human foreskin fibroblasts) (from UniProt P42224 1-750)”, in assay [4], the binding entry is listed as “binds”.
As to “STAT1 phosphorylated at S727 (endogenous, MB135 cells) (from UniProt P42224 1-750)”, the binding result in assay [1] was “binds”.
Take “STAT1 phosphorylated at Y701 (endogenous, MB135 cells) (from UniProt P42224 1-750)”: the binding result in assay [2] and in assay [1] was “binds” in each case.
“YBX1 (endogenous) (from UniProt P67809 1-324)”: the binding entry in assay [1] is “binds”.

B1: HNRNPM (endogenous) (protein, UniProt P52272 1-730)
chain: MAAGVEAAAEVAATEIKMEEESGAPGVPSGNGAPGPKGEGERPAQNEKRKEKNIKRGGNRFEPYANPTKRYRAFITNIPFDVKWQSLKDLVKEKVGEVTYVELLMDAEGKSRGCAVVEFKMEESMKKAAEVLNKHSLSGRPLKVKEDPDGEHARRAMQKVMATTGGMGMGPGGPGMITIPPSILNNPNIPNEIIHALQAGRLGSTVFVANLDYKVGWKKLKEVFSMAGVVVRADILEDKDGKSRGIGTVTFEQSIEAVQAISMFNGQLLFDRPMHVKMDERALPKGDFFPPERPQQLPHGLGGIGMGLGPGGQPIDANHLNKGIGMGNIGPAGMGMEGIGFGINKMGGMEGPFGGGMENMGRFGSGMNMGRINEILSNALKRGEIIAKQGGGGGGGSVPGIERMGPGIDRLGGAGMERMGAGLGHGMDRVGSEIERMGLVMDRMGSVERMGSGIERMGPLGLDHMASSIERMGQTMERIGSGVERMGAGMGFGLERMAAPIDRVGQTIERMGSGVERMGPAIERMGLSMERMVPAGMGAGLERMGPVMDRMATGLERMGANNLERMGLERMGANSLERMGLERMGANSLERMGPAMGPALGAGIERMGLAMGGGGGASFDRAIEMERGNFGGSFAGSFGGAGGHAPGVARKACQIFVRNLPFDFTWKMLKDKFNECGHVLYADIKMENGKSKGCGVVKFESPEVAERACRMMNGMKLSGREIDVRIDRNA
In the case of B1, the binding entry in assay [5] was “binds”.
